The values that follow come from publication PMC3351392.

The chains behind the UniProt entries cited, without tags or fusion partners.
UniProt Q03173: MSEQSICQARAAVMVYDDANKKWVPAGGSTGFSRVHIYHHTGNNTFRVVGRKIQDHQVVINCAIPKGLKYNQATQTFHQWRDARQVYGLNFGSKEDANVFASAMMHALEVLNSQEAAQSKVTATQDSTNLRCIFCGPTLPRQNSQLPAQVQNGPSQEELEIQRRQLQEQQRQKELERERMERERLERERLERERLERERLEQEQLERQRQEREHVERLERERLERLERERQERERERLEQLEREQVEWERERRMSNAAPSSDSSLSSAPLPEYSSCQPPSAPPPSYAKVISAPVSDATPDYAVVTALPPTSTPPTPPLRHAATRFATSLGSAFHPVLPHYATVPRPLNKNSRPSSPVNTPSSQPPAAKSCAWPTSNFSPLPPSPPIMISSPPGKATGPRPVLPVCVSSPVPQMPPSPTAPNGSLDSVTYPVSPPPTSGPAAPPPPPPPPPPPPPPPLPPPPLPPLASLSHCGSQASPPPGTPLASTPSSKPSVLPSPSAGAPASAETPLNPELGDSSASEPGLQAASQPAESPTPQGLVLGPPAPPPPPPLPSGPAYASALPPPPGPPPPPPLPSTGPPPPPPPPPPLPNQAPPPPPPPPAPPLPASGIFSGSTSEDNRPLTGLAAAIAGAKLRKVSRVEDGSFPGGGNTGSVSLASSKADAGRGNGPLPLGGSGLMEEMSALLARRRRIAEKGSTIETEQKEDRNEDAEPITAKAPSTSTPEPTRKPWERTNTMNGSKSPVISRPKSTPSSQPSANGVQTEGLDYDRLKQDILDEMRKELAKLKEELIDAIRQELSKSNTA

Assay [1] deals with T1, WAVE1, endogenous in brain extract (rat (endogenous in rat brain extract, legend) or mouse (endogenous in mouse brain extracts, text)) (UniProt Q8R5H6).
T1 sequence: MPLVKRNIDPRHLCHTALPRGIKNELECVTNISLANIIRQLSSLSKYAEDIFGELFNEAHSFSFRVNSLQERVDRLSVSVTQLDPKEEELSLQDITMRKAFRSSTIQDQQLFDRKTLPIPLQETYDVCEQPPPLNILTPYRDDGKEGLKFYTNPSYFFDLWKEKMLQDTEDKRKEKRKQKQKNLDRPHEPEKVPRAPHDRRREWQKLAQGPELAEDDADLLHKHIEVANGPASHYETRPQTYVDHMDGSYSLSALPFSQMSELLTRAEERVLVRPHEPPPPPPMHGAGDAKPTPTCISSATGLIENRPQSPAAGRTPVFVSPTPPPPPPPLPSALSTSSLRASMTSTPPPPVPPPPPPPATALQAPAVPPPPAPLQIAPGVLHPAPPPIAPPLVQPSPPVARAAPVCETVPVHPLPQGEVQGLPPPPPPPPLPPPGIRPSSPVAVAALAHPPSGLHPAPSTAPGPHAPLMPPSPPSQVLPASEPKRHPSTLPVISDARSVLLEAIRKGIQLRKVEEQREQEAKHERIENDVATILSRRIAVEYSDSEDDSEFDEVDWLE
The assay can be described thus: co-IP; reciprocal co-immunoprecipitation of endogenous proteins from brain extract, Western blotting. On the technique in general: Immunoblotting shows a protein as a band on a membrane.

Assay [2] concerns the target WAVE1, full-length, co-expressed for the co-immunoprecipitations with Amph and Gas7 (Figure 4E-F) (UniProt Q92558). Put plainly: co-IP; co-expression of tagged proteins in cells, immunoprecipitation from pre-cleared lysates, Western blotting.

Results are given in words; binding and its absence hold for the method and conditions named. Binding seen in cells or lysates may run through a third protein. Some entries that bind do so weakly or less than the wild type. For some assays here: Tags and fused reporters may be left off the sequences shown.

On to “Enah, endogenous in brain extract (from UniProt Q03173 1-802)”, for which the binding entry in assay [1] is reported as “binds”.

B1: Myc-Amph (Amphiphysin, full-length) (protein, UniProt P49418 1-695)
chain: MADIKTGIFAKNVQKRLNRAQEKVLQKLGKADETKDEQFEEYVQNFKRQEAEGTRLQRELRGYLAAIKGMQEASMKLTESLHEVYEPDWYGREDVKMVGEKCDVLWEDFHQKLVDGSLLTLDTYLGQFPDIKNRIAKRSRKLVDYDSARHHLEALQSSKRKDESRISKAEEEFQKAQKVFEEFNVDLQEELPSLWSRRVGFYVNTFKNVSSLEAKFHKEIAVLCHKLYEVMTKLGDQHADKAFTIQGAPSDSGPLRIAKTPSPPEEPSPLPSPTASPNHTLAPASPAPARPRSPSQTRKGPPVPPLPKVTPTKELQQENIISFFEDNFVPEISVTTPSQNEVPEVKKEETLLDLDFDPFKPEVTPAGSAGVTHSPMSQTLPWDLWTTSTDLVQPASGGSFNGFTQPQDTSLFTMQTDQSMICNLAESEQAPPTEPKAEEPLAAVTPAVGLDLGMDTRAEEPVEEAVIIPGADADAAVGTLVSAAEGAPGEEAEAEKATVPAGEGVSLEEAKIGTETTEGAESAQPEAEELEATVPQEKVIPSVVIEPASNHEEEGENEITIGAEPKETTEDAAPPGPTSETPELATEQKPIQDPQPTPSAPAMGAADQLASAREASQELPPGFLYKVETLHDFEAANSDELTLQRGDVVLVVPSDSEADQDAGWLVGVKESDWLQYRDLATYKGLFPENFTRRLD
For B1, in assay [2], the binding entry is “binds”.
